Measurements: patent US20090204336A1, “PDZ-Domain Modulators” (Forschungsverbund Berlin e. V., priority 2005, published 2009)
Some results were stated once for a whole list of compounds, not compound by compound. For at least one compound, name, drawing or mass did not settle the structure.

Target: T1, PDZ-domain of the protein AF6 (Homo sapiens, UniProt P55196)
T1 construct: The ubiquitarily 15N marked PDZ-domains of the proteins AF6; made in house
T1 sequence (P55196 1007-1093 limits assumed): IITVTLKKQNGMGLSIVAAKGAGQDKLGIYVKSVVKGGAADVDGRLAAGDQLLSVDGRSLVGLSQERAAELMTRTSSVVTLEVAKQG
Test: 15N-HSQC NMR binding assay (chemical shift comparison with and without test ligand)
Settings: 8 to 10-fold molar excess of test ligand, 50 μM protein

SMILES: O=C1NC(=S)SC1Cc1ccc(C(F)(F)F)cc1 (stereo not drawn) [Compound 1]
- binding to the PDZ-domain of the protein AF6 (binding / non-binding): bind
- binding to the PDZ-domain of the protein AF6 (binding / non-binding) (listed as compound 1): bind

SMILES: O=C1NC(=S)SC1Cc1ccc(Br)cc1 (stereo not drawn) [Compound 2]
- binding to the PDZ-domain of the protein AF6 (binding / non-binding): bind
- binding to the PDZ-domain of the protein AF6 (binding / non-binding) (listed as compound 2): bind

SMILES: O=C1NC(=S)SC1Cc1ccccc1 (stereo not drawn) [Compound 3]
- binding to the PDZ-domain of the protein AF6 (binding / non-binding): bind
- binding to the PDZ-domain of the protein AF6 (binding / non-binding) (listed as compound 3): bind

SMILES: O=C1NC(=S)SC1Cc1ccoc1 (stereo not drawn) [Compound 4]
- binding to the PDZ-domain of the protein AF6 (binding / non-binding): bind
- binding to the PDZ-domain of the protein AF6 (binding / non-binding) (listed as compound 4): bind

SMILES: O=C1NC(=S)SC1Cc1ccsc1 (stereo not drawn) [Compound 5]
- binding to the PDZ-domain of the protein AF6 (binding / non-binding): bind
- binding to the PDZ-domain of the protein AF6 (binding / non-binding) (listed as compound 5): bind

SMILES: CC(c1ccc(C(F)(F)F)cc1)C1SC(=S)NC1=O (stereo not drawn) [Compound 6]
- binding to the PDZ-domain of the protein AF6 (binding / non-binding): bind
- binding to the PDZ-domain of the protein AF6 (binding / non-binding) (listed as compound 6): bind

SMILES: O=C1NC(=O)C(Cc2ccc(C(F)(F)F)cc2)S1 (stereo not drawn) [Compound 7]
- binding to the PDZ-domain of the protein AF6 (binding / non-binding): bind
- binding to the PDZ-domain of the protein AF6 (binding / non-binding) (listed as compound 7): bind

SMILES: O=C1NC(=O)C(Cc2ccc(Br)cc2)S1 (stereo not drawn) [Compound 8]
- binding to the PDZ-domain of the protein AF6 (binding / non-binding): bind

SMILES: O=C1NC(=S)SC1=Cc1ccc(C(F)(F)F)cc1 [Compound 9]
- binding to the PDZ-domain of the protein AF6 (binding / non-binding): bind
- binding to the PDZ-domain of the protein AF6 (binding / non-binding) (listed as compound 9): bind

SMILES: O=C1NC(=S)SC1=Cc1ccc(Br)cc1 [Compound 10]
- binding to the PDZ-domain of the protein AF6 (binding / non-binding): bind

SMILES: O=C1NC(=S)SC1=Cc1ccsc1 [Compound 13]
- binding to the PDZ-domain of the protein AF6 (binding / non-binding): bind
- binding to the PDZ-domain of the protein AF6 (binding / non-binding) (listed as compound 13): bind

SMILES: O=C1NC(=S)SC1=Cc1cccc(C(F)(F)F)c1 [Compound 14]
- binding to the PDZ-domain of the protein AF6 (binding / non-binding): bind
- binding to the PDZ-domain of the protein AF6 (binding / non-binding) (listed as compound 14): bind

SMILES: O=C1NC(=S)SC1=Cc1ccccc1O [Compound 15]
- binding to the PDZ-domain of the protein AF6 (binding / non-binding): bind

SMILES: CC(=C1SC(=S)NC1=O)c1ccc(C(F)(F)F)cc1 [Compound 16]
- binding to the PDZ-domain of the protein AF6 (binding / non-binding): bind

SMILES: O=C1NC(=O)C(=Cc2ccc(C(F)(F)F)cc2)S1 [Compound 17]
- binding to the PDZ-domain of the protein AF6 (binding / non-binding): bind

SMILES: O=C1NC(=O)C(=Cc2ccoc2)S1 [Compound 19]
- binding to the PDZ-domain of the protein AF6 (binding / non-binding): bind

SMILES: O=C1NC(=O)C(=Cc2cccc(Br)c2)S1 [Compound 20]
- binding to the PDZ-domain of the protein AF6 (binding / non-binding): bind

SMILES: CC(C)C=C1SC(=O)NC1=O [Compound 21]
- binding to the PDZ-domain of the protein AF6 (binding / non-binding): bind
- binding to the PDZ-domain of the protein AF6 (binding / non-binding) (listed as compound 21): bind

SMILES: O=C1NC(=S)SC1=Cc1ccc(C(=O)O)cc1 [Compound 22]
- binding to the PDZ-domain of the protein AF6 (binding / non-binding): do not bind

SMILES: Cc1ccc(C=C2SC(=S)NC2=O)cc1 [Compound 23]
- binding to the PDZ-domain of the protein AF6 (binding / non-binding): do not bind

SMILES: Cc1cccc(C=C2SC(=S)NC2=O)c1 [Compound 24]
- binding to the PDZ-domain of the protein AF6 (binding / non-binding): do not bind

SMILES: O=C1NC(=S)SC1=Cc1cccc(Br)c1 [Compound 25]
- binding to the PDZ-domain of the protein AF6 (binding / non-binding): do not bind

SMILES: O=C1NC(=S)SC1Cc1cccc(C(F)(F)F)c1 (stereo not drawn) [Compound 26]
- binding to the PDZ-domain of the protein AF6 (binding / non-binding): do not bind

SMILES: O=C1NC(=S)SC1=Cc1ccc[nH]1 [Compound 27]
- binding to the PDZ-domain of the protein AF6 (binding / non-binding): do not bind

SMILES: CC(C)CC1SC(=S)NC1=O (stereo not drawn) [Compound 28]
- binding to the PDZ-domain of the protein AF6 (binding / non-binding): do not bind

SMILES: O=C1NC(=S)SC1=Cc1c[nH]c2ccccc12 [Compound 29]
- binding to the PDZ-domain of the protein AF6 (binding / non-binding) (listed as compound 29): do not bind

SMILES: O=C1NC(=S)SC1=Cc1ccc(-c2ccccc2)cc1 [Compound 30]
- binding to the PDZ-domain of the protein AF6 (binding / non-binding) (listed as compound 30): do not bind

SMILES: CN1C(=O)C(=Cc2ccc(C(F)(F)F)cc2)SC1=S [Compound 31]
- binding to the PDZ-domain of the protein AF6 (binding / non-binding) (listed as compound 31): do not bind

SMILES: CN1C(=O)C(=Cc2cccc(C(F)(F)F)c2)SC1=S [Compound 32]
- binding to the PDZ-domain of the protein AF6 (binding / non-binding) (listed as compound 32): do not bind

SMILES: CC(c1ccccc1)C1SC(=S)N(C)C1=O (stereo not drawn) [Compound 33]
- binding to the PDZ-domain of the protein AF6 (binding / non-binding): do not bind

SMILES: CSC1=NC(=O)C(Cc2ccc(C(F)(F)F)cc2)S1 (stereo not drawn) [Compound 34]
- binding to the PDZ-domain of the protein AF6 (binding / non-binding): do not bind

SMILES: CC(C)SC1=NC(=O)C(=Cc2ccc(C(F)(F)F)cc2)S1 [Compound 36]
- binding to the PDZ-domain of the protein AF6 (binding / non-binding): do not bind

SMILES: COc1ccc(CSC2=NC(=O)C(=Cc3ccc(C(F)(F)F)cc3)S2)cc1 [Compound 37]
- binding to the PDZ-domain of the protein AF6 (binding / non-binding): do not bind

SMILES: NC1=NC(=O)C(=Cc2ccsc2)S1 [Compound 38]
- binding to the PDZ-domain of the protein AF6 (binding / non-binding) (listed as compound 38): do not bind
